From PubChem BioAssay AID1508600 (Functional Genomics Laboratory (NCATS/FGL), 2020)
In all, about 53,000 sequences went through this assay and about 3,700 (7%) were called active.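 Rule for the calls: active = gene knockdowns whose robust z-score for IL-1 alpha signal is at least 2 or at most -2, so actives lie on both sides; inactive = the rest.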 The list shows a part of the results.

Test: Components of the Cytosolic LPS Sensing Pathway: Gene Identification via Genome-wide siRNA Screen;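 note: robust z of the log signal after scaling to non-targeting control siRNA wells of the plate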
Settings: RAW264.7 macrophages, IL-1a HTRF, actives lie on both sides, screened at 100 nM (by protocol), cells primed 5 h with Pam3CSK4 first
Method in brief: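 Cells (RAW264.7, 1×10^4 per well) were transfected with siRNA at 100 nM and cultured 48h at 37 degrees C. Pam3CSK4 was added for 5 hours; LipidA transfection followed for 24 hour. IL-1a was then measured by HTRF.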

z-score, inactive:
CCUUGUUCAACAGUCAUGUTT against Snu13 0.234, CCAUUUAUUCCCUCAACAUTT against Shoc2 0.47, GGGUCUGAUUUUUUAAGGATT against Arpp19 -0.87, GGAACUCACUCUAUCUUUUTT against C5ar2 0.236, CCUCUUGAGGUCUCGUCAATT against Fam221b -0.0968, GCUGGCUAGAAUCUUACCCTT against Aph1c 0.554, CGUGAGAAAGCCAAUCCCUTT against Gm9871 -1.48, GGAAAAUGGCAGAAAUGAATT against Vps26a -1.97, CGUUUGCCUGGUACCUUACTT against Fitm1 -0.32, GGAAAGACCAUUCUGUAUUTT against Vps37d -1.54, GUUAAAAAGUGGAAUGCAGTT against Rbx1 -0.609, GGAAACCGAAUUCCAAGGGTT against Ddx25 1.78, GGACAUUAGCCAACACAUCTT against Scp2d1 1.17, CCUUCCAUCCGAUUUGAAGTT against Ell -0.241, GGUUCCUCUGUAAAAAGAUTT against Defb13 -0.0112, CCUAUCAGUCUAUCAUGUATT against Kdr 0.31, GGCAGACAGAAGAUAUUUGTT against Aknaos -1.51, GCAGGAUACAAUGUAAAGCTT against Rab6a -0.392, GGUUGUAGACUUUAUUCAATT against Ppm1g 0.948, GCGUAUUUAUCAGAGUUCATT against Wdr78 0.828, GCCUAAGGAGUUUCUGAUATT against Ly6k -1.76, GCUACAGUUACUUAAAUGATT against Glipr1l2 -0.141, GGAAUGCUAUUCUCGGACUTT against Lrg1 0.432, GGAAAGCAUCAUUGAAAACTT against Dkk1 0.429, GGUCUAUGACAAGAAUUUUTT against Rdh7 0.165, GGUAACCUGUACAAUUGACTT against Serpinb1c -0.239, GAGCAUUGUCUACCUGGAATT against Vmn1r200 0.519, GGCAGAAGAACUUUUCCAGTT against Capsl 0.874, GAGACAAGGGUCGUCUAAUTT against Dusp13 1.42, CCCUCAAGUCGCACCUUUUTT against Dgkk 0.28
